Experimental data as given in patent US4021434A, “Sodium β-[2,6-dimethyl-3,5-bis(ethoxycarbonyl)-4-(3-nitrophenyl)-1,4-dihyd ropyridine-1-yl]ethyl sulfate” (Yamanouchi Pharmaceutical Co., Ltd., priority 1972, dated 1977).

Assay: in vivo
Details: mouse, mice
Excerpt: Experiment 2: Acute toxicity in mice

## COC(=O)C1=C(C)NC(C)=C(C(=O)OC)C1c1ccccc1[N+](=O)[O-] [C]
ip
  LD50: 400 mg/kg
po
  LD50: 2000 mg/kg
